## Library screen at single concentrations

A: 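Whole-cell growth test on Mycobacterium tuberculosis, read after 4 days in a medium based on cholesterol and the lipid DPPC; the read-out is not stated. Tested at 50 µM. Direction is inferred from retests: higher values go with more growth inhibition. Of about 69,000 compounds tested this way, about 370 (0.54%) reached 50% or more in at least one test.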
B: 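Phenotypic screen: M. tuberculosis growth, glucose 7H9 medium, 3 days; the read-out is not stated. Tested at 50 µM. The record gives no direction; compounds that gave an IC50 in retests scored well above the rest, so higher reads as more growth inhibition. Of about 69,000 compounds tested this way, about 760 (1.1%) reached 50% or more in at least one test.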

The filed quantity is “Percent Effect” (%).
How 0% and 100% were set is not recorded. Most values in the screen are low, and negative values occur.
This is an unselected part of the compounds tested.
Two or more numbers in one place are separate tests of the same structure; such repeats can differ widely.

For COCc1nc(NCC2CCS(=O)(=O)C2)c2cnn(C)c2n1 (centres unmarked) the result was A: -4.038% & -12.24%; B: -0.5195%. For OC[C@H]1CCCN1c1nccc(-c2cncnc2C2CCCCC2)n1 the result was A: -14.17%; B: 6.626%. O=C(COc1ccc(F)cc1F)N1CCOCC(O)(CN2CCCC2)C1 (centres unmarked) gave A: 5.808%; B: -8.957%. COc1ncc(CN2CCOC(Cc3cccc4ccccc34)C2)cn1 (centres unmarked) read A: -25.26% & 58.78%; B: -21.31% & 20.27%.

CC(C)c1nc2n(n1)CC(NCc1nc(-c3ccsc3)no1)CC2 (centres unmarked) read A: 18.52%; B: 36.92%. For CCc1cc(C)c(C(=O)N2CCCC(c3nnn[nH]3)C2)o1 (centres unmarked) the result was A: -19.11%; B: -29.25%. O=C(O)C(F)(F)F.[H][C@]12CCN(c3cccnc3)C[C@@]1([H])CN(CC1CC1)C2 gave A: -17.72%; B: -13.45%. With CC(C)c1csc(C2CCCN(C(=O)c3ccc(=O)n(C)c3)C2)n1 (centres unmarked) the screen gave A: 0.591%; B: 8.734% & -8.897%.

Result for CS(=O)(=O)NCC1CCCN(C(=O)Nc2ccccc2Cl)C1 (centres unmarked) was A: 4.397%; B: 47.81% & 15.6%. [H][C@@]12CS(=O)(=O)C[C@]1([H])N(Cc1ccc(C)c(C)c1)CCN2CC(=O)N(C)C gave A: 2.307% & 5.917%; B: -5.331%. For CC(C(=O)NCc1ccc(N2CCN(C)CC2)nc1)n1cccn1 (centres unmarked) the result was A: 4.402%; B: -2.05%. For Cc1cc(-c2cc(N)c(=O)n(CC(=O)NC3CCCCC3)n2)c(C)o1 the result was A: 7.594% & -9.1%; B: 6.363%.

COCC[C@]1(O)CCN(S(=O)(=O)c2ccc(C)cc2OC)C[C@H]1C gave A: 4.968%; B: -9.993%. NC(=O)c1cccc2nc([C@H]3CCN(Cc4ccccc4F)C3)[nH]c12 gave A: -6.648%; B: 1.137% & 41.59%. Cc1ccc(S(=O)(=O)NCCc2cccnc2)cc1C gave A: -15.03% & -9.817%; B: -30.22%. Cc1noc(C)c1-c1cccc(CC2CCN(C(=O)CCC(=O)O)C2)n1 (centres unmarked) read A: -9.987%; B: 10.25%.

Result for [H][C@]12CCN(S(=O)(=O)c3ccc(C)cc3)C[C@@]1([H])OCCN(C(C)=O)C2 was A: -13.83%; B: -46.33%. CCn1ccnc1CNCC1CCCN1c1cc(NC)ncn1 (centres unmarked) gave A: -5.627%; B: -5.59%. With COc1ccc(COCC(O)CNC(=O)c2cc(C)no2)cc1 (centres unmarked) the screen gave A: -16.29%; B: 0.1555%. With CN1CCCCC1Cc1nc(Cc2cccc(F)c2)no1 (centres unmarked) the screen gave A: 3.137%; B: 6.45% & 27.56%.

For O=C(O)C(F)(F)F.[H][C@]12CCC[C@@]1(COc1ccccn1)CN(S(=O)(=O)CC)C2 the result was A: 18.99%; B: 29.74%. With O=C(O)c1ccccc1-n1cnc(CN2CCc3ccccc32)c1 the screen gave A: 9.046%; B: -0.6813%. Cc1cccc(N2CCOCC3(C2)CN(c2cncnc2)C(=O)CO3)n1 (centres unmarked) read A: -6.896%; B: -9.709%. Result for CN(C)C(=O)NCc1nnc2n1CCN(Cc1ccsc1)C2 was A: -2.966%; B: -23.58% & -8.08%.

For OCc1nnc2n1CCN(c1cnccn1)C2 the result was A: -1.671%; B: -27.25%. O=C(O)C(F)(F)F.O=C(c1ccco1)N1CCOCC2(C1)CN(c1cccnc1)C(=O)CO2 (centres unmarked) gave A: -14.85%; B: -14.57%. CCn1c(CN(C)C)nnc1C1CCN(Cc2ccc(Cl)cc2)CC1 gave A: -12.85% & 1.448%; B: -2.576%. COc1ccc(CN2CC[C@H](c3nc4cccc(C(N)=O)c4[nH]3)C2)cc1 gave A: -8.129%; B: 6.948% & 17.36%.

With O=C(O)C(F)(F)F.[H][C@@]12CCNC[C@]1(C(=O)NCc1cnc(C)cn1)CCO2 the screen gave A: 3.135%; B: 0.1432%. For CCCc1nc(CN(CC)C(=O)c2ccc3ncsc3c2)no1 the result was A: -20.62%; B: -8.746%.

Once more, the final 2:

- O=C(O)C(F)(F)F.[H][C@@]12CCNC[C@]1(C(=O)NCc1cnc(C)cn1)CCO2 : A: 3.135%; B: 0.1432%
- CCCc1nc(CN(CC)C(=O)c2ccc3ncsc3c2)no1 : A: -20.62%; B: -8.746%

From ChEMBL document CHEMBL3988442, “University of Dundee, Small-Polar-MMV Screening Library” (2021).